Results are given in words; binding and its absence hold for the method and conditions named. Binding seen in cells or lysates may run through a third protein. A yes stands for co-enrichment or nearness to the bait. Other partners may have been found.
B1: Mitogen-activated protein kinase kinase kinase 6 (protein, UniProt O95382 1-1288)
chain: MAGPCPRSGAERAGSCWQDPLAVALSRGRQLAAPPGRGCARSRPLSVVYVLTREPQPGLEPREGTEAEPLPLRCLREACAQVPRPRPPPQLRSLPFGTLELGDTAALDAFYNADVVVLEVSSSLVQPSLFYHLGVRESFSMTNNVLLCSQADLPDLQALREDVFQKNSDCVGSYTLIPYVVTATGRVLCGDAGLLRGLADGLVQAGVGTEALLTPLVGRLARLLEATPTDSCGYFRETIRRDIRQARERFSGPQLRQELARLQRRLDSVELLSPDIIMNLLLSYRDVQDYSAIIELVETLQALPTCDVAEQHNVCFHYTFALNRRNRPGDRAKALSVLLPLVQLEGSVAPDLYCMCGRIYKDMFFSSGFQDAGHREQAYHWYRKAFDVEPSLHSGINAAVLLIAAGQHFEDSKELRLIGMKLGCLLARKGCVEKMQYYWDVGFYLGAQILANDPTQVVLAAEQLYKLNAPIWYLVSVMETFLLYQHFRPTPEPPGGPPRRAHFWLHFLLQSCQPFKTACAQGDQCLVLVLEMNKVLLPAKLEVRGTDPVSTVTLSLLEPETQDIPSSWTFPVASICGVSASKRDERCCFLYALPPAQDVQLCFPSVGHCQWFCGLIQAWVTNPDSTAPAEEAEGAGEMLEFDYEYTETGERLVLGKGTYGVVYAGRDRHTRVRIAIKEIPERDSRFSQPLHEEIALHRRLRHKNIVRYLGSASQGGYLKIFMEEVPGGSLSSLLRSVWGPLKDNESTISFYTRQILQGLGYLHDNHIVHRDIKGDNVLINTFSGLLKISDFGTSKRLAGITPCTETFTGTLQYMAPEIIDQGPRGYGKAADIWSLGCTVIEMATGRPPFHELGSPQAAMFQVGMYKVHPPMPSSLSAEAQAFLLRTFEPDPRLRASAQTLLGDPFLQPGKRSRSPSSPRHAPRPSDAPSASPTPSANSTTQSQTFPCPQAPSQHPPSPPKRCLSYGGTSQLRVPEEPAAEEPASPEESSGLSLLHQESKRRAMLAAVLEQELPALAENLHQEQKQEQGARLGRNHVEELLRCLGAHIHTPNRRQLAQELRALQGRLRAQGLGPALLHRPLFAFPDAVKQILRKRQIRPHWMFVLDSLLSRAVRAALGVLGPEVEKEAVSPRSEELSNEGDSQQSPGQQSPLPVEPEQGPAPLMVQLSLLRAETDRLREILAGKEREYQALVQRALQRLNEEARTYVLAPEPPTALSTDQGLVQWLQELNVDSGTIQMLLNHSFTLHTLLTYATRDDLIYTRIRGGMVCRIWRAILAQRAGSTPVTSGP
B2: Tryptophan--tRNA ligase, cytoplasmic (protein, UniProt P23381 1-471)
chain: MPNSEPASLLELFNSIATQGELVRSLKAGNASKDEIDSAVKMLVSLKMSYKAAAGEDYKADCPPGNPAPTSNHGPDATEAEEDFVDPWTVQTSSAKGIDYDKLIVRFGSSKIDKELINRIERATGQRPHHFLRRGIFFSHRDMNQVLDAYENKKPFYLYTGRGPSSEAMHVGHLIPFIFTKWLQDVFNVPLVIQMTDDEKYLWKDLTLDQAYSYAVENAKDIIACGFDINKTFIFSDLDYMGMSSGFYKNVVKIQKHVTFNQVKGIFGFTDSDCIGKISFPAIQAAPSFSNSFPQIFRDRTDIQCLIPCAIDQDPYFRMTRDVAPRIGYPKPALLHSTFFPALQGAQTKMSASDPNSSIFLTDTAKQIKTKVNKHAFSGGRDTIEEHRQFGGNCDVDVSFMYLTFFLEDDDKLEQIRKDYTSGAMLTGELKKALIEVLQPLIAEHQARRKEVTDEIVKEFMTPRKLSFDFQ
B3: Lamina-associated polypeptide 2, isoforms beta/gamma (protein, UniProt P42167 1-454)
chain: MPEFLEDPSVLTKDKLKSELVANNVTLPAGEQRKDVYVQLYLQHLTARNRPPLPAGTNSKGPPDFSSDEEREPTPVLGSGAAAAGRSRAAVGRKATKKTDKPRQEDKDDLDVTELTNEDLLDQLVKYGVNPGPIVGTTRKLYEKKLLKLREQGTESRSSTPLPTISSSAENTRQNGSNDSDRYSDNEEDSKIELKLEKREPLKGRAKTPVTLKQRRVEHNQSYSQAGITETEWTSGSSKGGPLQALTRESTRGSRRTPRKRVETSEHFRIDGPVISESTPIAETIMASSNESLVVNRVTGNFKHASPILPITEFSDIPRRAPKKPLTRAEVGEKTEERRVERDILKEMFPYEASTPTGISASCRRPIKGAAGRPLELSDFRMEESFSSKYVPKYVPLADVKSEKTKKGRSIPVWIKILLFVVVAVFLFLVYQAMETNQVNPFSNFLHVDPRKSN
B4: Dolichyl-diphosphooligosaccharide-protein glycosyltransferase subunit 1 (protein, UniProt P04843 24-607)
chain: ASSEAPPLINEDVKRTVDLSSHLAKVTAEVVLAHLGGGSTSRATSFLLALEPELEARLAHLGVQVKGEDEEENNLEVRETKIKGKSGRFFTVKLPVALDPGAKISVIVETVYTHVLHPYPTQITQSEKQFVVFEGNHYFYSPYPTKTQTMRVKLASRNVESYTKLGNPTRSEDLLDYGPFRDVPAYSQDTFKVHYENNSPFLTITSMTRVIEVSHWGNIAVEENVDLKHTGAVLKGPFSRYDYQRQPDSGISSIRSFKTILPAAAQDVYYRDEIGNVSTSHLLILDDSVEMEIRPRFPLFGGWKTHYIVGYNLPSYEYLYNLGDQYALKMRFVDHVFDEQVIDSLTVKIILPEGAKNIEIDSPYEISRAPDELHYTYLDTFGRPVIVAYKKNLVEQHIQDIVVHYTFNKVLMLQEPLLVVAAFYILFFTVIIYVRLDFSITKDPAAEARMKVACITEQVLTLVNKRIGLYRHFDETVNRYKQSRDISTLNSGKKSLETEHKALTSEIALLQSRLKTEGSDLCDRVSEMQKLDAQVKELVLKSAVEAERLVAGKLKKDTYIENEKLISGKRQELVTKIDHILDAL
B5: WW domain-containing adapter protein with coiled-coil (protein, UniProt Q9BTA9 1-647)
chain: MVMYARKQQRLSDGCHDRRGDSQPYQALKYSSKSHPSSGDHRHEKMRDAGDPSPPNKMLRRSDSPENKYSDSTGHSKAKNVHTHRVRERDGGTSYSPQENSHNHSALHSSNSHSSNPSNNPSKTSDAPYDSADDWSEHISSSGKKYYYNCRTEVSQWEKPKEWLEREQRQKEANKMAVNSFPKDRDYRREVMQATATSGFASGMEDKHSSDASSLLPQNILSQTSRHNDRDYRLPRAETHSSSTPVQHPIKPVVHPTATPSTVPSSPFTLQSDHQPKKSFDANGASTLSKLPTPTSSVPAQKTERKESTSGDKPVSHSCTTPSTSSASGLNPTSAPPTSASAVPVSPVPQSPIPPLLQDPNLLRQLLPALQATLQLNNSNVDISKINEVLTAAVTQASLQSIIHKFLTAGPSAFNITSLISQAAQLSTQAQPSNQSPMSLTSDASSPRSYVSPRISTPQTNTVPIKPLISTPPVSSQPKVSTPVVKQGPVSQSATQQPVTADKQQGHEPVSPRSLQRSSSQRSPSPGPNHTSNSSNASNATVVPQNSSARSTCSLTPALAAHFSENLIKHVQGWPADHAEKQASRLREEAHNMGTIHMSEICTELKNLRSLVRVCEIQATLREQRILFLRQQIKELEKLKNQNSFMV
B6: EDC4 (protein, UniProt Q6P2E9 1-1401)
chain: MASCASIDIEDATQHLRDILKLDRPAGGPSAESPRPSSAYNGDLNGLLVPDPLCSGDSTSANKTGLRTMPPINLQEKQVICLSGDDSSTCIGILAKEVEIVASSDSSISSKARGSNKVKIQPVAKYDWEQKYYYGNLIAVSNSFLAYAIRAANNGSAMVRVISVSTSERTLLKGFTGSVADLAFAHLNSPQLACLDEAGNLFVWRLALVNGKIQEEILVHIRQPEGTPLNHFRRIIWCPFIPEESEDCCEESSPTVALLHEDRAEVWDLDMLRSSHSTWPVDVSQIKQGFIVVKGHSTCLSEGALSPDGTVLATASHDGYVKFWQIYIEGQDEPRCLHEWKPHDGRPLSCLLFCDNHKKQDPDVPFWRFLITGADQNRELKMWCTVSWTCLQTIRFSPDIFSSVSVPPSLKVCLDLSAEYLILSDVQRKVLYVMELLQNQEEGHACFSSISEFLLTHPVLSFGIQVVSRCRLRHTEVLPAEEENDSLGADGTHGAGAMESAAGVLIKLFCVHTKALQDVQIRFQPQLNPDVVAPLPTHTAHEDFTFGESRPELGSEGLGSAAHGSQPDLRRIVELPAPADFLSLSSETKPKLMTPDAFMTPSASLQQITASPSSSSSGSSSSSSSSSSSLTAVSAMSSTSAVDPSLTRPPEELTLSPKLQLDGSLTMSSSGSLQASPRGLLPGLLPAPADKLTPKGPGQVPTATSALSLELQEVEPLGLPQASPSRTRSPDVISSASTALSQDIPEIASEALSRGFGSSAPEGLEPDSMASAASALHLLSPRPRPGPELGPQLGLDGGPGDGDRHNTPSLLEAALTQEASTPDSQVWPTAPDITRETCSTLAESPRNGLQEKHKSLAFHRPPYHLLQQRDSQDASAEQSDHDDEVASLASASGGFGTKVPAPRLPAKDWKTKGSPRTSPKLKRKSKKDDGDAAMGSRLTEHQVAEPPEDWPALIWQQQRELAELRHSQEELLQRLCTQLEGLQSTVTGHVERALETRHEQEQRRLERALAEGQQRGGQLQEQLTQQLSQALSSAVAGRLERSIRDEIKKTVPPCVSRSLEPMAGQLSNSVATKLTAVEGSMKENISKLLKSKNLTDAIARAAADTLQGPMQAAYREAFQSVVLPAFEKSCQAMFQQINDSFRLGTQEYLQQLESHMKSRKAREQEAREPVLAQLRGLVSTLQSATEQMAATVAGSVRAEVQHQLHVAVGSLQESILAQVQRIVKGEVSVALKEQQAAVTSSIMQAMRSAAGTPVPSAHLDCQAQQAHILQLLQQGHLNQAFQQALTAADLNLVLYVCETVDPAQVFGQPPCPLSQPVLLSLIQQLASDLGTRTDLKLSYLEEAVMHLDHSDPITRDHMGSVMAQVRQKLFQFLQAEPHNSLGKAARRLSLMLHGLVTPSLP

Amino acid sequences for entries named in this document (tags omitted).
UniProt O95817: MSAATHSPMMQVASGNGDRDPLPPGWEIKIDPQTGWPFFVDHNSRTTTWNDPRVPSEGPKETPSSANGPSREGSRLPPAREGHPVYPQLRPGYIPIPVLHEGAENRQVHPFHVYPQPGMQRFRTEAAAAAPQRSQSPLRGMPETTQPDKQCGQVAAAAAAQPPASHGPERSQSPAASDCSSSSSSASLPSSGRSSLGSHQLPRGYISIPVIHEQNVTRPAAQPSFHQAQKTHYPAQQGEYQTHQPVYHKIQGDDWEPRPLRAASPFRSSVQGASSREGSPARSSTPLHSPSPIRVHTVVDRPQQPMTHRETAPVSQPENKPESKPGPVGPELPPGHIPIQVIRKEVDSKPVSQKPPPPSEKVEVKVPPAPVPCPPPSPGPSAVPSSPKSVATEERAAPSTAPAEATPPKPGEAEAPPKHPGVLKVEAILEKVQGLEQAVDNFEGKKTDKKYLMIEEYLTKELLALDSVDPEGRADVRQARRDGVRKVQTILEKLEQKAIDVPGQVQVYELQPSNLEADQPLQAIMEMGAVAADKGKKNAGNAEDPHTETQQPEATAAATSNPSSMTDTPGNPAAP

Each binder was assayed against BAG3 (BCL-2-associated athanogene 3) (human (endogenous in HEK293T)) (UniProt O95817) (assay: affinity purification with mass spectrometry; endogenous BAG3 immunoprecipitated with anti-BAG3 antibody and Protein A/G magnetic beads from HEK293T lysate; cells treated with DMSO (basal) or 10 µM MG132 for 6 h; IgG IP (MG132_IgG) as control; label-free quantification, three biological replicates).

binding, binds:
B1
B2
B3
B4
B5
B6

Reference: PMC7694386
